{
  "source": "patent US20220257523A1",
  "about": "“COMPOSITE DRUG PARTICLES AND USES THEREOF” (The Regents of the University of Michigan, priority 2019, published 2022)",
  "tested_on": "beef adipose tissue",
  "experiment": "Ex vivo adipose tissue lysis (turbidity, free fatty acids)",
  "conditions": "1% salt solution, 0.5 gr beef adipose tissue, 37° C.; PBS 44 μM",
  "note": "Some entries share one result that the patent states for a list of compounds. For at least one compound, name, drawing or mass did not settle the structure.",
  "data": [
    {"smiles": "C[C@H](CCC(=O)[O-])[C@H]1CC[C@H]2[C@@H]3[C@H](O)C[C@@H]4C[C@H](O)CC[C@]4(C)[C@H]3C[C@H](O)[C@]12C.[Na+]", "note": "[sodium cholate]", "values": [
      {"measurement": "released free fatty acids in the incubation medium", "value": "≥ 100", "unit": "µM"}
    ]},
    {"smiles": "C[C@H](CCC(=O)[O-])[C@H]1CC[C@H]2[C@@H]3CC[C@@H]4C[C@H](O)CC[C@]4(C)[C@H]3C[C@H](O)[C@]12C.[Na+]", "note": "[sodium deoxycholate]", "values": [
      {"measurement": "released free fatty acids in the incubation medium", "value": "≥ 100", "unit": "µM"}
    ]}
  ]
}
